Source: publication PMC5700371
Results are given in words; binding and its absence hold for the method and conditions named. In cells and extracts the contact can be indirect. Some results given as binding are weak or reduced against the parent protein; the word gives no strength.

Amino acid sequences for entries named in this document (tags omitted).
UniProt P03427: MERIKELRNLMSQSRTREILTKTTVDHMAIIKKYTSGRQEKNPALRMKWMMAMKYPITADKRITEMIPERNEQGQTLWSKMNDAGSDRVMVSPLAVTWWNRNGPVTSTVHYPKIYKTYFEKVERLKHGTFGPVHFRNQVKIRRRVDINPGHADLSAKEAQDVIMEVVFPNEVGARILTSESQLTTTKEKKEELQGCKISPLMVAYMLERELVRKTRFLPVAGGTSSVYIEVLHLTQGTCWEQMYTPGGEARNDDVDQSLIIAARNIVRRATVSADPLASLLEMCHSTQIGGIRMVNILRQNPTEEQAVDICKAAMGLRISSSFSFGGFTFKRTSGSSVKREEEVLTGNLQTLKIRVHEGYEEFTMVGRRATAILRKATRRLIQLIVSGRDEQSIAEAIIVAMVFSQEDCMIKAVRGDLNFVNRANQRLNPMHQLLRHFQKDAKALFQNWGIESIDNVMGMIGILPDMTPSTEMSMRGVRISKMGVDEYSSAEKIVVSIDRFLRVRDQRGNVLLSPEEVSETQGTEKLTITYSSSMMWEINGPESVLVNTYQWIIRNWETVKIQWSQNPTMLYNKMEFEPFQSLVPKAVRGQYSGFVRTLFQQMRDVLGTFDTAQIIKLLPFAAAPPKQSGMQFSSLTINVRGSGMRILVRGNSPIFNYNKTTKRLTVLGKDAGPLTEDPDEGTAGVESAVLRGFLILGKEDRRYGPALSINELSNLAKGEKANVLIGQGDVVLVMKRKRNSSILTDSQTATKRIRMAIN

Biological target: PB2-Glc2 of influenza A virus A/WSN/33 (H1N1WSN) (influenza A virus A/WSN/33 (H1N1)) (UniProt P03427)
Assay: split reporter

B1: NUP50 (protein, UniProt Q9UKX7 1-468)
chain: MAKRNAEKELTDRNWDQEDEAEEVGTFSMASEEVLKNRAIKKAKRRNVGFESDTGGAFKGFKGLVVPSGGGRFSGFGSGAGGKPLEGLSNGNNITSAPPFASAKAAADPKVAFGSLAANGPTTLVDKVSNPKTNGDSQQPSSSGLASSKACVGNAYHKQLAALNCSVRDWIVKHVNTNPLCDLTPIFKDYEKYLANIEQQHGNSGRNSESESNKVAAETQSPSLFGSTKLQQESTFLFHGNKTEDTPDKKMEVASEKKTDPSSLGATSASFNFGKKVDSSVLGSLSSVPLTGFSFSPGNSSLFGKDTTQSKPVSSPFPTKPLEGQAEGDSGECKGGDEEENDEPPKVVVTEVKEEDAFYSKKCKLFYKKDNEFKEKGIGTLHLKPTANQKTQLLVRADTNLGNILLNVLIPPNMPCTRTGKNNVLIVCVPNPPIDEKNATMPVTMLIRVKTSEDADELHKILLEKKDA
binding: binds
